Counter-ions that a name gives are not always drawn.
Test system: MDA-MB-435 human melanoma cells
Experiment: In vitro chemosensitization, XTT
Format: cell-based
Details: 30 uM Imatinib Mesylate; FIG. 25B

## Cc1ccc(NC(=O)c2ccc(CN3CCN(C)CC3)cc2)cc1Nc1nccc(-c2cccnc2)n1 [Imatinib Mesylate]
  fold sensitization to TAXOTERE: ~4 fold
